PubChem BioAssay AID2551 (National Center for Advancing Translational Sciences (NCATS), 2010)
Hit rate of the full screen: of about 310,000 compounds, about 17,000 (5.5%) were called active. Inconclusive results, whose numbers are uncertain, are shown with a selection of clear calls. Calls come from the whole dose curve; as a rule, active = well fitted inhibition curve with a large enough effect; inconclusive = small, poorly fitted or top-dose-only effect, or effect the other way; inactive = no such curve, though single readings can be large or run the other way. Potencies of inconclusive entries are doubtful fits and often do not repeat.

The chains behind the UniProt entries cited, without tags or fusion partners. Where a name states a change or a piece, a line headed by the entry shows the natural chain unless it says otherwise.
UniProt P51450: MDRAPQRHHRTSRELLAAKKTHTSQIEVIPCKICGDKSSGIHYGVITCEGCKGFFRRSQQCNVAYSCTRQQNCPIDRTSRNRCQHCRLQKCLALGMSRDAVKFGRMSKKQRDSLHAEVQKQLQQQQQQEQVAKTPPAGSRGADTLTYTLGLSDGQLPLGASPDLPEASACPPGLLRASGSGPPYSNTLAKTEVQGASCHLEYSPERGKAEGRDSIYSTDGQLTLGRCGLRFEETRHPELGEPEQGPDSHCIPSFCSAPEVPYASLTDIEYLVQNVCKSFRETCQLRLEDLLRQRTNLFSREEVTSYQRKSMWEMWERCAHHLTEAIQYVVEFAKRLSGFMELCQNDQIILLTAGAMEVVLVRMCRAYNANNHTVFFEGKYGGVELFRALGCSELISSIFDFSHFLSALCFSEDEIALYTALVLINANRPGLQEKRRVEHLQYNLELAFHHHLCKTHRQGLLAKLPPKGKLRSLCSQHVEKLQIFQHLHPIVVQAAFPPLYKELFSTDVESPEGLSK

Molecular target: Nuclear receptor ROR-gamma (Mus musculus) (UniProt P51450)
Assay: qHTS for inhibitors of ROR gamma transcriptional activity; note: nearly all actives have a fitted effect of over 60% in size
Conditions: Drosophila S2 Gal4-RORgamma UAS-luciferase reporter, 20 h; series mostly up to 53.6 µM
Method in brief: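 A Gal4/UAS one-hybrid system in insect cells: metallothionein-promoter Gal4–ROR gamma fusion plus Photinus luciferase reporter. Copper sulfate 700 uM final, 20 hr ambient incubation, luminescent detection after 10 min with reagent.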
Potency is the fitted concentration of half-maximal effect.

Row | SMILES | Potency
1 | O=C(N/N=C/c1ccccc1Cl)c1[nH]c2ccc(Br)cc2c1-c1ccccc1 | inconclusive: 4.47 µM [activator, partial curve]
2 | CCCn1c(=N)n(CCOc2ccc(OC)cc2)c2ccccc21 | inactive
3 | COP(=O)(CN(Cc1ccccc1)C(=S)Nc1c(C)cccc1C)OC | inactive
4 | O=C(O)c1ccccc1C(=O)NCC(O)COc1ccc(Cl)cc1 (stereo not given) | inactive
5 | CCOc1ccc(OCc2ccc(C(=O)N3CCCCC3)o2)cc1 | inconclusive: 12.6 µM [activator, single point]
6 | CC(=O)c1cccc(NC(=O)Cc2ccc3c(c2)CCCC3)c1 | inconclusive: 15.8 µM [activator, single point]
7 | CCCc1cc(=O)[nH]c(SCC(=O)N2CCN(S(=O)(=O)c3ccc(C)cc3)C2)n1 | inconclusive: 20 µM [inhibitor, single point]
8 | COC(=O)[C@@]1(C)CCC[C@@]2(C)c3ccc(O)c(C(C)C)c3CCC21 (stereo not given in full) | inconclusive: 22.4 µM [inhibitor, single point]
9 | COn1c(=S)[nH]c2ccccc2c1=O | inconclusive: 14.1 µM [inhibitor, single point]
10 | CCc1ccccc1NC(=O)Nc1cccn(Cc2ccc(F)cc2)c1=O | inconclusive: 35.5 µM [activator, single point]
11 | COc1ccc(CCN2C(=O)CS/C2=N\NC(=O)c2ccc(C(C)(C)C)cc2)cc1OC | inconclusive: 11.2 µM [activator, partial curve]
12 | Cc1ccccc1-c1ccc2ncnc(-n3ccnc3)c2c1 | active: 11.2 µM
13 | COc1ccc(OC)c(Nc2ncnc3sccc23)c1 | inactive
14 | S=C1NC2(CCCCC2)NN1c1ccccc1 | inconclusive: 11.2 µM [inhibitor, partial curve, poor fit]
15 | Cc1ccc(-n2c(-c3ccccc3)c[n+]3c2CCC3)cc1 | inconclusive: 35.5 µM [inhibitor, single point]
16 | CC(C)C12CN3CC(C(C)C)(CN(C1)C3(C)C)C2=O | inactive
17 | COc1ccc(/C=C/C(=O)Nc2ccc(-n3nncc3-c3ccccc3)cc2)cc1OC | inconclusive: 0.0398 µM [activator, full curve, poor fit]
18 | CCCCCSc1nnc2c(n1)OC(c1cccn1C)N(C(C)=O)c1ccccc1-2 (stereo not given) | inactive
19 | CCN1CCN(C(=O)c2cc(COc3ccc4ncccc4c3)on2)CC1 | inactive
20 | Cc1nnc(SCC(=O)Nc2cc(Cl)ccc2Cl)n1CC1CCCO1 (stereo not given) | inactive
21 | c1ccc(-c2cccc(-c3ccccn3)n2)nc1 | inconclusive: 12.6 µM [inhibitor, single point]
22 | Cc1sc2nc(CN3CCOCC3)nc(NS(=O)(=O)c3ccccc3)c2c1C | inactive
23 | O=C(Nc1ccncc1)c1cc(F)cc(F)c1 | inconclusive: 35.5 µM [inhibitor, single point]
24 | COC(=O)Oc1ccc(/C=N/NC(=O)CN(c2ccccc2Cl)S(C)(=O)=O)cc1OC | active: 0.0089 µM
25 | CCCCn1c(=O)[nH]c(=O)c2c1nc(CN1C(=O)c3ccccc3S1(=O)=O)n2CCC | inconclusive: 0.355 µM [inhibitor, full curve, poor fit]

Rewritten with each value named: entries from further up.
COc1ccc(/C=C/C(=O)Nc2ccc(-n3nncc3-c3ccccc3)cc2)cc1OC
  Potency: inconclusive: 0.0398 µM [activator, full curve, poor fit]
CCCCCSc1nnc2c(n1)OC(c1cccn1C)N(C(C)=O)c1ccccc1-2 (stereo not given)
  Potency: inactive

Next part

Row | SMILES | Potency
26 | CN(Cc1ccccc1)C(=O)c1ccccc1-c1ccccc1 | inactive
27 | Cc1[nH]c2ccccc2c1C(=O)CSc1nc2cc(S(=O)(=O)N3CCCCC3)ccc2o1 | inconclusive: 14.1 µM [activator, single point]
28 | CCOc1ccc(-c2noc(CCC(=O)O)n2)cc1 | active: 0.355 µM
29 | O=C(CN1C2CCCC1CC(NC(=O)c1ccco1)C2)Nc1ccccc1C(F)(F)F (stereo not given) | inconclusive: 11.2 µM [activator, partial curve, poor fit]
30 | O=c1c2c([N+](=O)[O-])cc([N+](=O)[O-])cc2sn1-c1ccc(Br)cc1 | active: 8.91 µM
31 | Cn1ncc(Cl)c1C(=O)Nc1nc2ccc(Cl)cc2s1 | active: 11.2 µM
32 | Cc1nc([N+](=O)[O-])c(C(=O)OCc2ccccc2Br)n1C | inconclusive: 35.5 µM [activator, single point]
33 | Cc1ccc(S(=O)(=O)NCCC(=O)Nc2ccc(Cl)c(Cl)c2)cc1 | inactive
34 | CC(=O)NC(NC(=S)Nc1ccc(N=Nc2ccccc2C)cc1C)C(Cl)(Cl)Cl (stereo not given) | inactive
35 | Cc1ccccc1Cn1nnc(C(=O)Nc2cccc(C)c2C)c1N | inconclusive: 11.2 µM [activator, partial curve]
36 | C=CCn1c2ccccc2c2nnc(SCN3C(=O)c4ccccc4C3=O)nc21 | inactive
37 | COc1c(Cl)cc(C(=O)NN)cc1Cl | inconclusive: 3.55 µM [inhibitor, full curve]
38 | CC(C)c1ccc(NC(=O)Cc2ccc(NC3=NC4CS(=O)(=O)CC4S3)cc2)cc1 (stereo not given) | inactive
39 | COc1ccc(O)c(-c2cc(-c3ccccc3Cl)[nH]n2)c1 | inconclusive: 15.8 µM [inhibitor, partial curve, poor fit]
40 | CC(=O)c1cccc(NC(=O)c2cc3ccccn3n2)c1 | active: 8.91 µM
41 | C=CCN(C(=O)CSC1=NC(=O)CN1C(C)=O)c1nc(C)c(-c2ccccc2)s1 | active: 12.6 µM
42 | CC(=O)n1cc(N(C(=O)CCl)c2ccc(C)cc2)c2ccccc21 | active: 11.2 µM
43 | Cc1nc(NC(=O)/C=C/c2ccccc2)sc1C(=O)Nc1ccccc1 | inactive
44 | Cc1ccc(OCC(=O)NNC(=S)NC(=O)c2cccs2)c(C)c1 | active: 10 µM
45 | O=C(Nc1ccc(S(=O)(=O)NCCc2ccccc2)cc1)c1ccncc1 | inactive
46 | Cc1c(C(=O)OCCOC(C)C)[nH]c2c1C(=O)CC(c1ccco1)C2 (stereo not given) | inconclusive: 10 µM [activator, partial curve]
47 | CCC1=NN(C(=O)Cc2ccc([N+](=O)[O-])cc2)C(O)(c2ccncc2)C1 (stereo not given) | active: 17.8 µM
48 | CC(C)[C@H](NC(=O)OC(C)(C)C)c1nnc(SCC(=O)Nc2ccc(Br)cc2)o1 | active: 2.51 µM
49 | CSc1nc(N2CCN(Cc3ccc4c(c3)OCO4)CC2)c2ccccc2n1 | inactive
50 | O=C(CN1C(=O)c2ccccc2S1(=O)=O)c1ccccc1 | active: 8.91 µM
